# From PMC10120462, “Styrylquinazoline derivatives as ABL inhibitors selective for different DFG orientations” (Journal of Enzyme Inhibition and Medicinal Chemistry, 2023)
# Columns and labels:
# Type in all cases: cell-based
# NHDF = assay: Cytotoxicity studies (MTS), normal fibroblasts; conditions: 72 h, normal human fibroblasts, read-out: Antiproliferative activity IC50 NHDF
# Protocol: The antiproliferative properties of all synthesised compounds were tested on a panel of seven different human cancer cell types, including chronic myeloid leukaemia cells (K562) with p53 and ABL protein mutations and solid tumours, such as pancreatic ductal adenocarcinoma (PANC-1), wild type colon carcinoma (HCT 116 p53^+/+) and a mutant with a deletion of the TP53 gene (HCT 116 p53^-/-), lung cancer (A549), breast cancer (MCF-7) and glioblastoma (U-251). Glioblastoma is the most aggressive cancer and has a poor prognosis and short survival after application of available treatments. In contrast, the other cell lines studied represent common cancers found in the human population. Nevertheless, these cell lines are characterised by a different landscape of kinase expression, as reported in[36]. In chronic leukaemia cells, an aberration of the Philadelphia chromosome is common in which a fragment of chromosome 9 is displaced to chromosome 22, leading to the formation of the oncogenic protein BCR-ABL. The altered structure of the protein leads to abnormal activity that promotes excessive growth and differentiation of cells even in the absence of growth factors, as well as inhibition of apoptosis and formation of metastases. […] The p53 protein encoded by this gene plays a pivotal role in controlling cell division or cell fate when damage is detected. […]
# PANC-1 = assay: Cytotoxicity studies (MTS), antiproliferative activity; conditions: Homo sapiens, 72 h
# Source text: (§1) In contrast, the other cell lines studied represent common cancers found in the human population. Nevertheless, these cell lines are characterised by a different landscape of kinase expression, as reported in[36]. In chronic leukaemia cells, an aberration of the Philadelphia chromosome is common in which a fragment of chromosome 9 is displaced to chromosome 22, leading to the formation of the oncogenic protein BCR-ABL. The altered structure of the protein leads to abnormal activity that promotes excessive growth and differentiation of cells even in the absence of growth factors, as well as inhibition of apoptosis and formation of metastases. Moreover, the status of the TP53 gene in leukaemia is not insignificant. Mutations of the TP53 gene occur in more than 50% of all cancers, leading to increased metastasis and an overall poor prognosis[38]^,[39]. The p53 protein encoded by this gene plays a pivotal role in controlling cell division or cell fate when damage is detected. […] Therefore, interaction between the signalling network of the BCR-ABL pathway and p53 often results in an impairment of p53 function and survival[43]^,[44]. […] Selectivity studies were performed on normal human fibroblast – NHDF cell line.
# (§2) M. Rusin from the Maria Sklodowska-Curie Memorial Cancer Centre and Institute of Oncology in Gliwice, Poland. […] G. Kramer-Marek from the Institute of Cancer Research in London, United Kingdom. The human suspension chronic myeloids leukaemia cell line K562 and the pancreatic ductal adenocarcinoma cell line PANC-1 were purchased from Merck. The normal human dermal fibroblasts cell line NHDF were obtained from PromoCell. All adherent cancer cell lines were cultured in Dulbecco’s Modified Eagle’s medium (DMEM) supplemented with 10% heat-inactivated foetal bovine serum – FBS (all from Merck). […] Each complete medium contained a mixture of two antibiotics - penicillin and streptomycin (1% v/v; Gibco). Cell lines were cultured at 37 °C with 5% CO2 humidified atmosphere.
# (§3) The assay was carried out after 72 h of incubation with different concentrations of the tested compounds. Then DMEM without phenol red was added to each well with CellTiter 96®AQueous One Solution-MTS (Promega) solution and incubated for 1 h or 3 h (PANC-1) at 37 °C. The optical densities of the samples were measured at 490 nm using a multi-plate reader (Synergy 4, BioTek). […] Each compound was tested in triplicate in a single experiment and each experiment was performed three or four times.
# HCT 116 p53+/+ = assay: as above; conditions: Homo sapiens, 72 h
# Source text: as §1, §2, §3
# MCF-7 = assay: as above; conditions: Homo sapiens, MCF7, 72 h
# Source text: as §1, §2, §3
# K562 = assay: as above; conditions: Homo sapiens, 72 h
# Source text: as §1, §2, §3
# A549 = assay: as above; conditions: Homo sapiens, 72 h
# Source text: as §1, §2, §3
# U-251 = assay: as above; conditions: Homo sapiens, 72 h
# Source text: as §1, §2, §3
# HCT 116 p53−/− = assay: as above; conditions: Homo sapiens, 72 h
# Source text: as §1, §2, §3
smiles,measurement,setting,value
"Cc1ccc(NC(=O)c2ccc(CN3CCN(C)CC3)cc2)cc1Nc1nccc(-c2cccnc2)n1 [Imatinib, imatinib, reference compound]",IC50,NHDF,> 25 µM
same,IC50,PANC-1,> 25 µM
same,IC50,HCT 116 p53+/+,44.6 ± 2.41 µM
same,IC50,MCF-7,> 25 µM
same,IC50,K562,0.133 ± 0.03 µM
same,IC50,A549,> 25 µM
same,IC50,U-251,> 25 µM
same,IC50,HCT 116 p53−/−,51.2 ± 4.09 µM
